# Results: PubChem BioAssay AID2417 (National Center for Advancing Translational Sciences (NCATS), 2010)
# About 4,300 (3.1%) of roughly 140,000 compounds were called active. Inconclusive means that the source gave no clear call. Such entries were picked first, then a sample of the others.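 Rule for the calls: active = readout at or below -70, meaning at least 70% loss of cells showing the perinucleolar compartment, a nuclear body marking cancer cells; inconclusive = readout between -30 and a set limit; inactive = the rest.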
# Experiment: High Content Assay for Compounds that inhibit the Assembly of the Perinucleolar Compartment;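 note: plate controls were DMSO wells for no effect and camptothecin positive control wells for full effect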
# Conditions: PC3M PTB-GFP, PNC prevalence imaging, 16 h; at 10 µM; active compounds read low
# Procedure, shortened: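 Compounds are pinned in duplicate onto adhered PC3M cells stably expressing GFP-tagged PTB and incubated 16 h at 37 C. Cells are then fixed, nuclei stained with Hoechst, and PNC-positive cells counted.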
row,SMILES,"activity change (PNC), negative = inhibition"
1,CCC(=O)N1CCN(c2nc3ccccc3s2)CC1,inactive: -15.1%
2,CCOC(=O)C(=CNc1cccc(N)n1)C(=O)OCC,inconclusive: -35.3%
3,Cc1ccc2oc(=O)c3cnn(CC(=O)N4CCCCCC4)c3c2c1,inconclusive: -61.8%
4,O=C(CN1CCCCC1)Nc1cc(Cl)ccc1Cl,inconclusive: -66.7%
5,Nc1nc2ccc(C(=O)NC3CCCCC3)cc2s1,inconclusive: -67.7%
6,CCOc1ccc2nc(SCC(=O)Nc3ccc4c(c3)OCO4)sc2c1,inactive: -14.7%
7,COc1ccccc1CNC(=O)C1CC(=O)N(C2CCCC2)C1 (stereo unspecified),inactive: -18.6%
8,Cc1ccc(NC(=S)/C(=C(\[O-])c2ccc(C)c([N+](=O)[O-])c2)[n+]2ccccc2)cc1C,inactive: 12.9%
9,O=C(CN1C(=O)C2CCCCN2C(=O)c2ccccc21)N1CCCc2ccccc21 (stereo unspecified),inconclusive: -45.3%
10,O=C(O/N=C\c1ccc(N2CCOCC2)c([N+](=O)[O-])c1)c1ccccc1Cl,inactive: 80.9%
11,COc1ccc(Cl)cc1NC(=O)C(=O)NC1CCCCCC1,inconclusive: -44.2%
12,Cc1cccc(OCCC(=O)Nc2ccc(F)c(Cl)c2)c1,inactive: 1.36%
13,COc1ccccc1-c1nnc(SCc2ccccn2)n1C,inconclusive: -67.1%
14,COc1cccc(-c2nnc(NC(=O)c3ccc4ncsc4c3)o2)c1,inactive: 12.1%
15,COc1ccc(C)cc1NC(=O)C(OC(=O)CNC(=O)c1cc(C)cc(C)c1)c1ccccc1 (stereo unspecified),inconclusive: -60.3%
16,Cc1ccnc(-n2c(CCN3C(=O)c4ccccc4C3=O)nc3ccccc3c2=O)c1,inconclusive: -71.9%
17,CCOC(=O)c1c(C)nc2ccc(Cl)cc2c1-c1ccccc1,inactive: -13.6%
18,COc1ccccc1-c1cc(C(=O)Nc2cc(C)on2)no1,inconclusive: -61.7%
19,CCCOc1ccc(CC(=O)NNC(=S)Nc2ccccc2)cc1Br,inactive: 0.369%
20,O=C(NCc1ccco1)Nc1cccs1,inconclusive: -30.2%
21,Cc1ccccc1C(=O)NC1CCN(CC(=O)Nc2c(C)cccc2C)CC1,inactive: 0.858%
22,CSc1ccccc1C(=O)N1CCN(c2ccc(F)cc2)CC1,inactive: 7.36%
23,COc1ccc(/C=N/Nc2ccc([N+](=O)[O-])cc2)cc1Cn1cc([N+](=O)[O-])cn1,inactive: -20.3%

# Two neighbouring compounds already listed, for reference:
row,SMILES,"activity change (PNC), negative = inhibition"
14,COc1cccc(-c2nnc(NC(=O)c3ccc4ncsc4c3)o2)c1,inactive: 12.1%
15,COc1ccc(C)cc1NC(=O)C(OC(=O)CNC(=O)c1cc(C)cc(C)c1)c1ccccc1 (stereo unspecified),inconclusive: -60.3%

# Next part.

row,SMILES,"activity change (PNC), negative = inhibition"
1,O=C(c1cnn(C(=O)COc2ccc(Cl)cc2)c1)c1ccccc1O,inconclusive: -59.8%
2,CC(Sc1nc2ccccc2s1)C(=O)Nc1ccc2c(c1)OCO2 (stereo unspecified),inconclusive: -40.6%
3,Cc1nc2nc(C)c(CCC(=O)NCc3ccc4c(c3)OCO4)c(C)n2n1,inconclusive: -57.3%
4,O=C1N2CCSC2=NC1(NS(=O)(=O)c1ccccc1)C(F)(F)F (stereo unspecified),inactive: -16.8%
5,COc1ccccc1-c1cc(C(=O)N2CCN(c3ccc(F)cc3)CC2)no1,inconclusive: -44.7%
6,S=C(Nc1ccc(Cl)cc1Cl)NC1CCN(Cc2ccccc2)CC1,inactive: 37.8%
7,Cc1cc2nnc(SCC(=O)OC(C)C)n2c2ccccc12,inactive: 38.1%
8,O=C(COc1ccccc1)Nc1cccc(-c2nc3ccccc3[nH]2)c1,inconclusive: -41.3%
9,COc1cccc(C(=O)NC(Cc2ccccc2)c2ccc3c(c2)OCCCO3)c1 (stereo unspecified),inconclusive: -71.4%
10,Cc1nnsc1Sc1cccc(C(F)(F)F)c1,inconclusive: -45.7%
11,CCOC(=O)N1CCC2(CC1)C(C#N)=C(N)Oc1c2c(C)nn1-c1cccc(Cl)c1,inactive: -22.3%
12,O=C(CSc1nc(-c2ccco2)cc(C(F)(F)F)n1)NCCCn1ccnc1,inconclusive: -38.3%
13,COc1ccc(C)cc1N(C(=O)c1ccccc1)c1nc2ccccc2s1,inconclusive: -42%
14,Cn1nnnc1Sc1ncnc2scc(-c3ccccc3)c12,inconclusive: -33.4%
15,Cc1c(C(=O)Nc2ccc(Oc3ccccc3)cc2)sc2nc3n(c(=O)c12)CCC3,inactive: 6.02%
16,O=C(Nc1ccc2oc(=O)ccc2c1)c1cccnc1,inconclusive: -58.2%
17,COc1ccc2cc(/C=C/C(=O)c3ccco3)c(Cl)nc2c1,inconclusive: -30.8%
18,O=C(CN1CCN(c2ccc(F)cc2)CC1)Nc1ccc(F)c(F)c1,inconclusive: -65.3%
19,COC(=O)[C@@H]1CC[C@H](C)[C@@H](c2ccc(C)cc2)N1C(=O)c1ccc(/C=N/O[C@@H](C)CN2CCCCc3nc(C)c(C)cc32)cc1,inconclusive: -77.8%
20,CCC(CC)NC(=O)c1cc(OC)c(OC)c(OC)c1,inconclusive: -55.9%
21,Cc1ccccc1NS(=O)(=O)c1ccc(N2CCCC2=O)cc1,inconclusive: -61.5%
22,O=C(NCc1cccs1)c1ccc(N2CCCC2=O)cc1,inactive: -20.3%
23,O=C(COC(=O)c1cc2c(s1)CCC2)Nc1ccc(F)cc1,inconclusive: -42.8%

row,SMILES,"activity change (PNC), negative = inhibition"
1,CCOc1ccc(NC(=O)c2ccccc2OCC(=O)c2ccc(C)cc2)cc1,inconclusive: -50.3%
2,N/C(=N\OS(=O)(=O)c1ccccc1)c1ccncc1,inactive: -19.3%
3,Cc1ccccc1-c1coc2cc(O)ccc2c1=O,inactive: -13.5%
4,C=CCSc1nnc(CSc2nc3sc4c(c3c(=O)[nH]2)CCCC4)n1-c1ccccc1,inactive: -11.2%
5,COC(=O)Cc1cc(=O)n(-c2ccccc2)[nH]1,inconclusive: -41.4%
6,CCOC(=O)c1c(C)[nH]c(C(=O)COC(=O)CCC(=O)c2ccc3c(c2)OCCO3)c1C,inconclusive: -60.2%
7,O=C(/C=C/c1ccccc1)NCCc1ccc2c(c1)OCCO2,inconclusive: -45.8%
8,Cc1ccc(C)c(OCCn2cc(/C=C(\C#N)C(=O)NCc3ccco3)c3ccccc32)c1,active: -85.6%
9,COCCNCCCCOc1ccccc1-c1ccccc1,inconclusive: -37.2%
10,O=c1c2c(ncn1Cc1ccccc1)nc1n2CCC1,inactive: -8.18%
11,CN(CC(=O)Nc1cc([N+](=O)[O-])ccc1Cl)Cc1ccc(Br)cc1,inconclusive: -40.9%
12,O=C(CN1CCN(C(c2ccccc2)c2ccccc2)CC1)NC(=O)NCc1ccco1,inconclusive: -46%
13,O=C(Nc1ccc(N2CCCCC2)cc1)c1ccc(F)cc1,inconclusive: -36.7%
14,O=C(CS(=O)(=O)Cc1ccccc1)N1CCN(C(=O)c2ccco2)CC1,inconclusive: -38.6%
15,COc1ccccc1N1CCN(Cc2nc(N)nc(Nc3ccc(C)c(Cl)c3)n2)CC1,inconclusive: -41.7%
16,COc1ccccc1N1CCN(C(=O)C(C)N(c2ccccc2)S(C)(=O)=O)CC1 (stereo unspecified),inconclusive: -62.2%
17,FC(F)Oc1ccccc1NC(=S)Nc1cccc(Cl)c1Cl,inconclusive: -44.1%
18,CC12C(=O)N(NC(=O)c3ccncc3)C(=O)C1C1C=CC2C1 (stereo unspecified),inactive: -14.9%
19,O=C(NCCCN1CCCC1=O)NC12CC3CC(CC(C3)C1)C2,inconclusive: -77.7%
20,O=C(CSc1nnnn1-c1ccc2c(c1)OCCO2)Nc1nc2c(s1)CCCC2,inactive: 1.04%
21,C=CCNC(=O)/C(=C\C=C\c1ccccc1)NC(=O)c1ccccc1Cl,inconclusive: -41.7%
22,O=S(=O)(c1cccc2nsnc12)N1CCN(C/C=C\c2ccccc2)CC1,inconclusive: -53.7%
23,CO/N=C(\Cn1ncc(N2CCCC2)c(Cl)c1=O)c1ccc(Cl)cc1,inconclusive: -52.8%

row,SMILES,"activity change (PNC), negative = inhibition"
1,CC1(C)CC(=O)C2=C(C1)c1c(ccc3ncccc13)NC2c1cccs1 (stereo unspecified),inactive: 137%
2,COc1ccc(OC(=O)CN2C(=O)C3C4CCC(C4)C3C2=O)cc1 (stereo unspecified),inconclusive: -56.9%
3,O=C1CN(C(=O)COC(=O)Cc2ccsc2)c2ccccc2N1,inactive: 1.45%
4,c1ccc(-c2cc3c(NCC4COc5ccccc5O4)ncnc3s2)cc1 (stereo unspecified),inconclusive: -73.2%
5,Cc1cccc(NC(=S)N2CCCCCC2)c1,active: -106%
6,CC(=NCC1CCNCC1)C1=C(O)CC(C)(C)CC1=O,inactive: -13.3%
7,COC(=O)Cc1cc(=O)n2[nH]cnc2n1,inconclusive: -70.3%
8,CC1=CSC2=NC(=O)/C(=C/c3cccc(OC(=O)c4ccco4)c3)C(=N)N12,inactive: -23.9%
9,CCCCSc1nnc([C@H](C)NC(=O)OC(C)(C)C)o1,inconclusive: -67.9%
10,CCOC(=O)c1sc(NC(=O)CSc2ccccn2)c(C#N)c1C,inactive: 18.4%
11,CCOC(=O)c1cnc(SCc2nc(N)nc(Nc3ccccc3)n2)nc1N,active: -123%
12,CCOC(=O)c1c(CN2CCOCC2)n(-c2ccccc2)c2cc(Br)c(OC)cc12,active: -92.4%
13,O=C(c1ccc(C#CC2(O)CCCCC2)cc1)N1CCOCC1,inconclusive: -41.7%
14,CSc1nc(SCCO)c2sc3nc(-c4ccco4)c4c(c3c2n1)CC(C)(C)OC4,inconclusive: -50.3%
15,COC(=O)c1cn(CC(=O)N2C(C)CCCC2C)c2ccccc12 (stereo unspecified),inconclusive: -32.3%
16,COc1cccc(OC)c1OCCCSc1nc(C)cc(=O)[nH]1,inconclusive: -53.4%
17,Cc1[nH]c2ccccc2c1NC(=O)CN1CCN(c2cccc(C(F)(F)F)c2)CC1,inconclusive: -38.4%
18,COc1cccc(OCC(O)CN2CC(C)CC(C)C2)c1 (stereo unspecified),inconclusive: -46.1%
19,O=C1OC(OC(=O)c2ccccc2Br)C(N2CCOCC2)=C1Cl (stereo unspecified),inactive: 84.2%
20,CC(C)c1ccc(OC(=O)NCCO)cc1,inconclusive: -41.2%
21,O=S(=O)(/N=C(/Nc1ccc(F)cc1F)c1ccccc1)c1ccccc1,inconclusive: -30.7%
22,COc1ccc(-c2noc(CN(C)S(=O)(=O)c3ccc(C)cc3)n2)cc1,inconclusive: -58.9%
